Data as given in PubChem BioAssay AID1508588 (Peter MacCallum Cancer Centre, 2020).

Assay: 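Which gene losses make BRAF-mutant melanoma cells more responsive to vemurafenib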 (primary screen)
Cell system: human WM266.4 melanoma cells (BRAF V600 mutant)
Knock-down reagent: siRNA pool against human genes, 40 nM
Time to read-out: 96 h from transfection to read-out
Conditions: vemurafenib 300 nM (about IC25), added 48 h after transfection, for 48 h; comparison arm got DMSO vehicle only
Detection: 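Cell gain (DAPI nuclei at end minus before drug, mean of two replicates) and medium lactate by absorbance per cell, both as ratio to non-targeting siRNA, also grouped into fold-change classes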
Direction: cell gain with vemurafenib: higher = more cell gain than with non-targeting siRNA; lactate per cell with vemurafenib: higher = more lactate made per cell
Active means: 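Enhancement is called by pairing each knock-down's vehicle-arm and drug-arm fold-change classes for viability or glycolysis; which class combinations qualify is not given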
Calls: active = enhances vemurafenib effect; inactive = no enhancement seen
Here is an unselected part of about 18,000 reagents. Over the whole deposit, 790 (4.4%) were called active. 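Calls rest on a combination of fold-change classes in drug and vehicle arms, not all shown here.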 No sequences are given here.

With knock-down of DPP3 (dipeptidyl peptidase 3) the results were cell gain with vemurafenib 0.45; lactate per cell with vemurafenib 2.17; inactive.
Silencing of TOE1 (target of EGR1, exonuclease) resulted in: cell gain with vemurafenib 0.27; lactate per cell with vemurafenib 2.38; inactive.
For SENP5 (SUMO specific peptidase 5) the deposit lists cell gain with vemurafenib 0.48; lactate per cell with vemurafenib 1.17; inactive.
CYP2D6 gave cell gain with vemurafenib 0.42; lactate per cell with vemurafenib 0.48; inactive.
Against MPHOSPH9 (M-phase phosphoprotein 9) the deposit lists cell gain with vemurafenib 1.26; lactate per cell with vemurafenib 0.38; inactive.
After knock-down of UCP1 (uncoupling protein 1) the results were cell gain with vemurafenib 0.96; lactate per cell with vemurafenib 0.54; inactive.
ATAD5 (ATPase family AAA domain containing 5) showed cell gain with vemurafenib 0.81; lactate per cell with vemurafenib 0.79; inactive.
With knock-down of PLPPR1 (phospholipid phosphatase related 1), the record shows cell gain with vemurafenib 0.35; lactate per cell with vemurafenib 1.48; inactive.
After knock-down of ATOH1 (atonal bHLH transcription factor 1) the results were cell gain with vemurafenib 1.14; lactate per cell with vemurafenib 1.02; inactive.
With knock-down of FKBP15 (FKBP prolyl isomerase family member 15), the record shows cell gain with vemurafenib 0.37; lactate per cell with vemurafenib 1.7; inactive.
MROH7 (maestro heat like repeat family member 7) showed cell gain with vemurafenib 0.6; lactate per cell with vemurafenib 1.84; inactive.
With knock-down of TRIM59 (tripartite motif containing 59) the results were cell gain with vemurafenib 0.99; lactate per cell with vemurafenib 0.99; inactive.
Against CDK18 (cyclin dependent kinase 18), the entry reads cell gain with vemurafenib 0.09; lactate per cell with vemurafenib 3.04; inactive.
Silencing of RELN (reelin) came out at: cell gain with vemurafenib 0.82; lactate per cell with vemurafenib 1.03; inactive.
After knock-down of ARR3 (arrestin 3), the record shows cell gain with vemurafenib 0.58; lactate per cell with vemurafenib 1.69; inactive.
With knock-down of ZNF146 (zinc finger protein 146) the results were cell gain with vemurafenib 0.95; lactate per cell with vemurafenib 0.6; inactive.
RALGAPB (Ral GTPase activating protein non-catalytic subunit beta) showed cell gain with vemurafenib 0.62; lactate per cell with vemurafenib 1.52; inactive.
For PARP15 (poly(ADP-ribose) polymerase family member 15), the values are cell gain with vemurafenib 0.88; lactate per cell with vemurafenib 0.56; inactive.
ZNRF1 (zinc and ring finger 1) scored cell gain with vemurafenib 0.14; lactate per cell with vemurafenib 1.02; inactive.
SHB (SH2 domain containing adaptor protein B) showed cell gain with vemurafenib 1.22; lactate per cell with vemurafenib 0.54; inactive.
With knock-down of ERC2 (ELKS/RAB6-interacting/CAST family member 2) the results were cell gain with vemurafenib 0.7; lactate per cell with vemurafenib 0.72; inactive.
For LRCH1, the values are cell gain with vemurafenib 0.78; lactate per cell with vemurafenib 0.54; inactive.
Against DNAJC25 (DnaJ heat shock protein family (Hsp40) member C25), the values are cell gain with vemurafenib 0.43; lactate per cell with vemurafenib 0.45; active.
TMPRSS13 (transmembrane serine protease 13) gave cell gain with vemurafenib 0.59; lactate per cell with vemurafenib 1.15; inactive.
Depletion of NUDCD3 (NudC domain containing 3) resulted in: cell gain with vemurafenib 0.62; lactate per cell with vemurafenib 0.52; inactive.
After knock-down of MTHFS (methenyltetrahydrofolate synthetase), the screen gave cell gain with vemurafenib 0.34; lactate per cell with vemurafenib 0.7; active.
Knock-down of SMAD4 (SMAD family member 4) gave: cell gain with vemurafenib 0.81; lactate per cell with vemurafenib 0.98; inactive.
Knock-down of DLG4 (discs large MAGUK scaffold protein 4) resulted in: cell gain with vemurafenib 0.77; lactate per cell with vemurafenib 0.53; inactive.
Silencing of RRAS2 (RAS related 2) came out at: cell gain with vemurafenib 0.65; lactate per cell with vemurafenib 0.28; inactive.
For LMO2 (LIM domain only 2), the entry reads cell gain with vemurafenib 0.43; lactate per cell with vemurafenib 0.96; inactive.
TAMM41 showed cell gain with vemurafenib 1; lactate per cell with vemurafenib 0.55; inactive.
Against EML3 (EMAP like 3) the deposit lists cell gain with vemurafenib 0.82; lactate per cell with vemurafenib 0.86; inactive.
Knock-down of CRIPT (CXXC repeat containing interactor of PDZ3 domain) gave: cell gain with vemurafenib 0.8; lactate per cell with vemurafenib 0.7; inactive.
With knock-down of PHIP (PHIP subunit of CUL4-Ring ligase complex) the results were cell gain with vemurafenib 0.81; lactate per cell with vemurafenib 0.4; inactive.
For AQP8 (aquaporin 8), the entry reads cell gain with vemurafenib 0.47; lactate per cell with vemurafenib 1.23; inactive.
After knock-down of PPTC7 (protein phosphatase targeting COQ7), the screen gave cell gain with vemurafenib 0.57; lactate per cell with vemurafenib 1.22; inactive.
IFNA4 (interferon alpha 4) gave cell gain with vemurafenib 0.86; lactate per cell with vemurafenib 0.9; inactive.
After knock-down of TMEM179B (transmembrane protein 179B) the results were cell gain with vemurafenib 1.03; lactate per cell with vemurafenib 0.48; inactive.
Knock-down of LCA5L (lebercilin LCA5 like) resulted in: cell gain with vemurafenib 0.89; lactate per cell with vemurafenib 1.37; inactive.
Depletion of FLII (FLII actin remodeling protein) came out at: cell gain with vemurafenib 0.61; lactate per cell with vemurafenib 1.2; inactive.
Silencing of PHF20L1 (PHD finger protein 20 like 1) came out at: cell gain with vemurafenib 0.92; lactate per cell with vemurafenib 0.85; inactive.
Silencing of LPO (lactoperoxidase) came out at: cell gain with vemurafenib 0.55; lactate per cell with vemurafenib 0.61; inactive.
Silencing of MIDN (midnolin) resulted in: cell gain with vemurafenib 1.19; lactate per cell with vemurafenib 0.4; active.
Against TMEM109 (transmembrane protein 109), the values are cell gain with vemurafenib 0.25; lactate per cell with vemurafenib 1.18; inactive.
Depletion of MT4 (metallothionein 4) resulted in: cell gain with vemurafenib 1.17; lactate per cell with vemurafenib 1.06; inactive.
After knock-down of ZNF584 (zinc finger protein 584), the record shows cell gain with vemurafenib 0.53; lactate per cell with vemurafenib 0.53; inactive.
Depletion of OR6Q1 (olfactory receptor family 6 subfamily Q member 1) came out at: cell gain with vemurafenib 0.54; lactate per cell with vemurafenib 0.8; inactive.
BBLN (bublin coiled coil protein) showed cell gain with vemurafenib 0.47; lactate per cell with vemurafenib 0.87; inactive.
With knock-down of HID1 (HID1 domain containing) the results were cell gain with vemurafenib 0.79; lactate per cell with vemurafenib 1.48; inactive.
Knock-down of SSTR3 (somatostatin receptor 3) came out at: cell gain with vemurafenib 0.45; lactate per cell with vemurafenib 2.8; inactive.
Silencing of UNK (unk zinc finger) came out at: cell gain with vemurafenib 0.65; lactate per cell with vemurafenib 0.98; inactive.
PCM1 (pericentriolar material 1) gave cell gain with vemurafenib 0.23; lactate per cell with vemurafenib 0.72; inactive.

Look-ups from the entries so far.
Result for IFNA4 (interferon alpha 4) under “lactate per cell with vemurafenib”: 0.9
PPTC7 (protein phosphatase targeting COQ7), Call = inactive
TMPRSS13 (transmembrane serine protease 13), lactate per cell with vemurafenib: 1.15
Entry for PLPPR1 (phospholipid phosphatase related 1) under “Call”: inactive
Result for EML3 (EMAP like 3) in “cell gain with vemurafenib”: 0.82
Result for LCA5L (lebercilin LCA5 like) under “Call”: inactive
